# Experimental data: PubChem BioAssay AID1259308 (NCATS, 2017)
# Purpose: 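Knock-downs that increase output of a recombinant reporter protein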 (primary screen)
# System: human HEK293 embryonic kidney cells stably expressing firefly luciferase (HEK-CMV-Luc2-Hygro)
# Knock-down reagent: single siRNA against human genes, 0.8 pmol siRNA per well
# Time to read-out: 72 h
# Detection: 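Reporter luminescence and viable-cell signal on separate replicate plates, given as percent of non-targeting control and median/MAD z-scores, plus per-cell luciferase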
# Direction: total luciferase, z-score and total luciferase, % of control: higher = more reporter protein produced; luciferase per cell, z-score: higher = more reporter output per viable cell; viable cells, % of control: higher = more viable cells
# Active means: 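An siRNA counts as active if its total luciferase robust z-score exceeds 3; genes with two or more such siRNAs out of three were retested with fresh siRNAs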
# Calls: active = raised luciferase; inactive = no rise
# This is an unselected part of about 59,000 deposited reagents. Over the whole deposit, about 1,510 (2.6%) got an active call. 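Calls use total luciferase alone and ignore viability, so some active siRNAs may act by altering cell number.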 A number with no mark means an inactive call. The numbers tell different reagents against one gene apart. Reagent sequences are not shown.
gene,siRNA no.,"total luciferase, z-score","total luciferase, % of control","luciferase per cell, z-score","viable cells, % of control"
HOXA3,1,-0.728,67.4,-0.456,84.9
HOXA3,2,-0.0983,79.9,-0.484,101
HOXA3,3,0.474,91.3,0.688,85.1
ARHGAP17,1,1.13,104,0.928,91.3
ARHGAP17,2,-1.25,57,-0.941,81.7
ARHGAP17,3,0.527,92.4,0.815,83.3
STARD3NL,1,-1.86,45,-1.92,83.4
STARD3NL,2,-0.614,69.7,-0.17,81.4
STARD3NL,3,-1.03,61.5,-0.00754,68.8
MTERF4,1,0.205,86,-0.26,103
MTERF4,2,0.205,86,-0.036,97
MTERF4,3,0.557,93,0.136,100
SPDYE2,1,-0.0397,81.1,0.251,84.8
SPDYE2,2,1.43,110,0.871,98.1
SPDYE2,3,-0.0767,80.4,-0.826,112
SPDYE2,4,0.36,89.1,0.177,95
SPDYE2,5,0.298,87.8,-0.114,101
SPDYE2,6,-0.123,79.4,0.456,78.7
LRRC37BP1,1,-0.587,70.2,-0.785,96.5
LRRC37BP1,2,-0.293,76.1,-0.847,106
LRRC37BP1,3,1.61,114,1.65,82.5
KYAT3,1,1.66,115,0.891,102
KYAT3,2,-0.213,77.6,-0.724,105
KYAT3,3,-1.12,59.7,-1.26,93
LTN1,1,-1.31,55.9,-0.203,65.9
LTN1,2,-0.021,81.5,-0.495,104
LTN1,3,-0.313,75.7,0.161,81
OR2G2,1,4.15 (active),164,2.64,91.8
OR2G2,2,0.805,97.9,0.184,104
OR2G2,3,0.627,94.4,-0.221,112
HES2,1,-3.47,12.8,-4.03,41.4
HES2,2,0.565,93.1,1.06,78.6
HES2,3,-0.0573,80.7,-0.0905,92.4
ISCU,1,-1.61,49.8,-0.481,63.1
ISCU,2,-1.58,50.6,-1.17,76.8
ISCU,3,-1.63,49.4,-0.575,64.3
PTPN2,1,-0.268,76.6,-0.656,102
PTPN2,2,0.951,101,0.202,107
PTPN2,3,0.409,90,-0.379,111
NBEA,1,0.399,89.8,-0.333,110
NBEA,2,-0.752,66.9,-0.989,97
NBEA,3,-0.107,79.8,-0.72,108
FSHB,1,-0.462,72.7,-0.614,95.5
FSHB,2,-0.684,68.3,0.862,60.8
FSHB,3,-0.799,66,-0.696,88.6
WDR26,1,-0.533,71.3,-0.302,86.3
WDR26,2,0.19,85.7,0.456,84.9
WDR26,3,-0.244,77,0.537,74.7
LRRFIP2,1,2.21,126,2.65,70
LRRFIP2,2,0.383,89.5,1.89,60.8
LRRFIP2,3,-0.899,64,-0.0111,71.7
MACROH2A2,1,-0.57,70.5,0.214,74.5
MACROH2A2,2,1.01,102,1.07,86.1
MACROH2A2,3,0.219,86.2,0.356,87.7
CREB3L1,1,-1.32,55.6,-1.75,98.6
CREB3L1,2,2.21,126,1.46,95.7
CREB3L1,3,1.28,107,1.04,91.4
TULP1,1,-0.49,72.1,-0.255,86.2
TULP1,2,-0.00401,81.8,0.564,78.8
TULP1,3,0.539,92.6,0.222,97.6
NCBP3,1,0.562,93.1,1.26,74.6
NCBP3,2,0.418,90.2,0.3,93.2
NCBP3,3,-0.48,72.3,-0.134,83.7
VEZT,1,-0.808,65.8,-0.505,84
VEZT,2,0.938,101,0.439,100
VEZT,3,0.626,94.3,1.38,73.3
LHFPL7,1,-0.0284,81.3,0.401,81.8
LHFPL7,2,-0.0699,80.5,0.387,81.2
LHFPL7,3,-0.357,74.8,0.543,72.4
RNF11,1,0.191,85.7,-0.254,102
RNF11,2,0.375,89.3,-0.269,107
RNF11,3,-0.461,72.7,0.0882,79.4
KCNJ5-AS1,1,-0.00777,81.7,0.339,83.5
KCNJ5-AS1,2,-0.725,67.5,-0.908,95.7
KCNJ5-AS1,3,0.143,84.7,0.0595,93.2

A few values from above:
RNF11 #1, total luciferase, z-score → 0.191
Value for LTN1 #3 under “total luciferase, z-score”: -0.313
TULP1 #2, luciferase per cell, z-score = 0.564
LRRFIP2 #2, total luciferase, z-score = 0.383
Result of PTPN2 #2 under “total luciferase, z-score”: 0.951
LHFPL7 #3, total luciferase, z-score: -0.357
